Test results as given in patent US9029601B2, “Aryloxyurea compound and pest control agent” (Nippon Soda Co., Ltd., priority 2010, dated 2015).
Some entries share one result that the patent states for a list of compounds.

How the values were obtained:
Assay type in all cases: in vivo
[1] = system: organic phosphorous-resistant adult female Tetranychus urticae; assay: Efficacy test against Tetranychus urticae (spray on kidney bean plant); settings: emulsion diluted to 125 ppm, sprayed on kidney bean plant; 25° C., humidity 65%; adults 3 days, egg-to-adult development 14 days after spraying
[2] = system: adult female Panonychus citri from Kanagawa Prefecture; assay: Efficacy test against Panonychus citri (Kanagawa Prefecture; spray on mandarin orange leaf); settings: emulsion diluted to 125 ppm, sprayed on mandarin orange leaf; Kanagawa strain; 3 days / 10 days after spraying
[3] = system: adult female Tetranychus kanzawai from Okayama Prefecture; assay: Efficacy test against Tetranychus kanzawai (spray on kidney bean plant); settings: emulsion diluted to 500 ppm, sprayed on kidney bean plant; 3 days / 14 days after spraying
[4] = system: acaricide-resistant adult female Aculops pelekassi; assay: Efficacy test against Aculops pelekassi (spray on mandarin orange leaf); settings: emulsion diluted to 125 ppm, sprayed on mandarin orange leaf; 3 days / 10 days after spraying

Measured: insect mortality rate

CCN(Oc1cc(Cl)cc(Br)c1)C(=O)NC(C)(C)c1ccccc1 [1-24, 1-(3-bromo-5-chlorophenoxy)-1-ethyl-3-(2-phenylpropan-2-yl)urea]
≥ 90%: all assays above
